Source: PubChem BioAssay AID588497 (NMMLSC, 2011)
About 780 (0.22%) of roughly 360,000 compounds were called active. Inconclusive results, whose numbers are uncertain, are shown with a selection of clear calls. No stated cut-off is given here; in the data, active means inhibition above about 35% (passing the limit was not always enough); inconclusive means no clear call, values can overlap the other calls.

The compounds below were run on Botulinum neurotoxin type F light chain protease (Clostridium botulinum) (assay: BoNT/F light chain protease inhibitors, primary screen, biochemical, flow cytometry, MLPCN library (AID 588497; further: plate controls were buffer without enzyme for full effect and enzyme alone for no effect)). Conditions: Multiplex microsphere protease cleavage assay, at 10 µM, stronger effect = higher value.
With `COCCN1C(=O)N(c2cccc(C)c2)C(=O)C1CC(=O)Nc1ccc(OC)cc1` (centres undefined) the inhibition was active: 37.2%.
In the case of `O=C1CNC(=S)N1c1nc2ccccc2s1`, the inhibition is reported as inconclusive: -2.5%.
For `Cc1onc(-c2ccccc2)c1-c1csc(N/N=C/c2ccccc2Cl)n1`, the inhibition was inconclusive: 133%.
With `CC1(C)Cc2c(sc(NC(=O)Cc3ccccc3)c2C#N)CO1` the inhibition was inconclusive: 95.7%.
`O=[N+]([O-])c1cc(S(=O)(=O)C(F)(F)F)ccc1N1CCN(c2ccccc2)CC1` was tested, and the inhibition was inactive: -7.2%.
`Cc1cccc(NC(=O)CN(C)C(=O)/C=C/c2ccccc2)c1C` was tested, and the inhibition was inactive: 6.1%.
For `CCOC(=O)N1CCC(NS(=O)(=O)c2ccc3c(c2)CCN3C(C)=O)CC1`, the inhibition was inconclusive: 21.7%.
With `NC(=O)N/N=C/CCc1ccccc1` the inhibition was inconclusive: 35.4%.
For `CCCc1nc(NCCO)c(C#N)c2c1CCCC2`, the inhibition was inconclusive: -46.3%.
For `CCn1c(=O)c(=O)[nH]c2cc(C(=O)Nc3ccc(S(=O)(=O)N4CCCC4)cc3)ccc21`, the inhibition was inconclusive: -15.8%.
For `COc1ccc(NC(=O)CSc2nnc3ccc(-c4cccnc4)nn23)cc1`, the inhibition was inactive: 17.7%.
`CCC(=O)Nc1nc2ccccc2n1CCN(C)C` was tested, and the inhibition was inactive: 1.7%.
For `Cn1c(N)nc2ccccc2c1=O`, the inhibition was inconclusive: 3.6%.
`COc1ccc(CCN2CCCC(CN(C)Cc3cccc(OC)c3)C2)cc1` (centres undefined) was tested, and the inhibition was inconclusive: -11.3%.
`COc1cccc(NC(=O)c2cc(-c3ccc(C)o3)nc3ccccc23)c1` was tested, and the inhibition was inactive: -0.9%.
With `Cc1ccc(C2=NOC3(CC(=O)N(c4ccc(C)cc4)C3=O)C2)cc1` (centres undefined) the inhibition was inconclusive: 21.1%.
`CCOc1ccc(NC(=O)c2cccc3ccccc23)cc1` was tested, and the inhibition was inconclusive: 21.9%.
In the case of `CCOc1ccc(C(=O)Nc2cccc3ncccc23)cc1Cl`, the inhibition is reported as inconclusive: 7%.
In the case of `CC(C)Oc1ccccc1NC(=O)CSc1nc2ccccc2c(=O)n1C`, the inhibition is reported as inconclusive: 3.3%.
`Cc1ccccc1NC(=O)CSc1nnc(Cc2ccccc2)c(=O)n1N` was tested, and the inhibition was inactive: 3%.
With `Cc1ccccc1NC(=O)c1sc(NC(=O)C2CC2)nc1C` the inhibition was inconclusive: -25.6%.
`CN(c1ccccc1C(=O)Nc1ccc2c(c1)n(C)c(=O)n2C)S(C)(=O)=O` was tested, and the inhibition was inconclusive: 1.1%.
For `Cc1cc(C)c(C#N)c(Nc2cccc(Br)c2)n1`, the inhibition was inconclusive: -18.2%.
In the case of `CC(=O)c1ccc(N2CCN(C(=O)Cc3cccs3)CC2)cc1`, the inhibition is reported as inactive: -1.1%.
In the case of `Cc1ccc(C(C)C)c(OCC(=O)N2CCN(c3ncccn3)CC2)c1`, the inhibition is reported as inactive: 3.2%.
`CCOC(=O)c1ccc(-n2nc(C)cc2C)cc1` was tested, and the inhibition was inconclusive: -10.8%.
For `CCOc1ccc(N2C(=O)C3ON(C)C(c4ccc([N+](=O)[O-])cc4)C3C2=O)cc1` (centres undefined), the inhibition was inactive: 6.9%.
`Cc1ccc2nc(SCC(=O)O)nc(C)c2c1` was tested, and the inhibition was active: 39.7%.
With `Cn1cc(C(=O)N/N=C/c2ccc(Br)c([N+](=O)[O-])c2)c2ccccc21` the inhibition was inconclusive: 42.9%.
`CN(C(=O)Nc1ccccc1)C1CCS(=O)(=O)C1` (centres undefined) was tested, and the inhibition was inconclusive: -3.2%.
`Cc1cc(C)nc(/N=C(\NC(=O)C(C)(C)C)Nc2ccc(F)cc2)n1` was tested, and the inhibition was inconclusive: -23.9%.
For `Cc1ccc(CSc2nc3ccccc3c(=O)n2C)cc1`, the inhibition was inconclusive: -21.3%.
With `CCc1ccc(CN(C)C(=O)c2cccc(S(=O)(=O)Nc3ccccc3OC)c2)cc1` the inhibition was inconclusive: 18%.
For `CNC(=O)/C(C#N)=C/c1ccc(-c2nc3ccccc3s2)o1`, the inhibition was inactive: 2.1%.
In the case of `Cc1c(C)c2ccc(OC(C)C(=O)NCc3ccccn3)cc2oc1=O` (centres undefined), the inhibition is reported as inactive: 7.7%.
In the case of `CCOc1cc(N2CCOCC2)c(OCC)cc1NC(=O)CN1C(=O)NC2(CCc3ccccc32)C1=O` (centres undefined), the inhibition is reported as inconclusive: -60.3%.
`O=C(O)c1c(NC(=O)N2CCCC2)sc2c1CCCC2` was tested, and the inhibition was inconclusive: 8.5%.
In the case of `Cc1ccccc1C(=O)Nc1ccnn1C1CCN(C(=O)c2cnsn2)CC1`, the inhibition is reported as inactive: 5.4%.
For `COc1ccccc1/C=C/C=N/NC(=O)CCn1cnc2ccccc21`, the inhibition was inconclusive: 27.3%.
`CCOC(=O)C(C)Sc1ncc(OC)c(Sc2ccc(Cl)cc2)n1` (centres undefined) was tested, and the inhibition was inactive: -10%.
With `CCc1sc(NC(C)=O)nc1-c1ccccc1` the inhibition was inactive: 0.1%.
For `Cn1nc(-c2ccccc2)cc1NC(=O)Nc1ccc(F)cc1`, the inhibition was inconclusive: -34%.
With `CC(C)(c1ccccc1)c1ccc(OCCn2cnc3ccccc3c2=O)cc1` the inhibition was inconclusive: 2.3%.
In the case of `COc1cc(NC(=O)CCn2c(=O)[nH]c3ccsc3c2=O)cc(OC)c1`, the inhibition is reported as active: 40.7%.
`CCCC(C(=O)NCC1CCCO1)N(C(=O)CNS(=O)(=O)c1ccccc1)c1ccc(F)cc1` (centres undefined) was tested, and the inhibition was inactive: 2.1%.
`Cc1nc(-c2nnc(SCC(=O)Nc3ccc(Cl)cc3)n2C)cs1` was tested, and the inhibition was inconclusive: -38.6%.
With `CC(O)(c1cccnc1)c1nc(-c2ccc(S(C)(=O)=O)cc2)cs1` (centres undefined) the inhibition was inactive: -2.9%.
With `Cc1onc(-c2ccccc2)c1C(=O)OCC(=O)Nc1ccccc1` the inhibition was inconclusive: 6.6%.
`CCn1c(=O)c([N+](=O)[O-])c(N2CCN(Cc3ccc4c(c3)OCO4)CC2)c2ccccc21` was tested, and the inhibition was inconclusive: 32.5%.
For `C/C(=N/OC(=O)N(C)C)c1ncc(C(F)(F)F)cc1N1CCOCC1`, the inhibition was inconclusive: 5.2%.
In the case of `Cc1cc(=O)[nH]c(SCc2ccc(Cl)cc2)n1`, the inhibition is reported as inconclusive: -87.3%.
With `Cn1c2c(c(=O)n(C)c1=O)C(NC(=O)C(C)(C)C)(C(F)(F)F)C(=O)N2` (centres undefined) the inhibition was inconclusive: -31.8%.
In the case of `CCOC(=O)Cc1csc(NC(=O)CN2CCN(CC)CC2)n1`, the inhibition is reported as inconclusive: -12.6%.
`O=C1[C@@H](c2ccccc2)CC[C@@H]2C=CC[C@H]3CCN1[C@@H]32` was tested, and the inhibition was inactive: 3.3%.
In the case of `COc1ccc(C(=O)NNC(=O)CSc2nnc(-c3ccc(O)cc3)n2C)cc1`, the inhibition is reported as inactive: -0.3%.
In the case of `CC1=[N+]([O-])C(C)(C)N(O)C1(C)C`, the inhibition is reported as inconclusive: 65.2%.
`COc1ccc(-n2nc(C(=O)NCC(=O)NCc3cccc(F)c3)c3ccccc3c2=O)cc1Cl` was tested, and the inhibition was active: 36.3%.
For `N#CC1=C(c2ccccc2)/C(=C/c2ccccc2)OC1=O`, the inhibition was inactive: 0.8%.
`COc1ccc(/C=N/NC(=O)c2c(C)nc3ccc(Br)cn23)cc1OC` was tested, and the inhibition was inconclusive: 88.2%.
